Results as given in paper PMC11413854, “Reversible Control of Native GluN2B-Containing NMDA Receptors with Visible Light” (ACS Chemical Neuroscience, 2024).

System: native NMDA currents of cultured cortical neurons
Experiment: Whole-cell patch-clamp of NMDA currents in cultured cortical neurons (DIV 6-8), spectral dependence of bound OptoNAM-3
Format: cell-based, mouse
Conditions: for % of trans in binding site: Fig. 5J; for % of cis in binding site: Figure 5E
Method: We then turned to native NMDA currents. We repeated these experiments on cultured cortical neurons at days in vitro [DIV] 6–8, a stage at which GluN2B-containing NMDARs form the major population of neuronal NMDARs.[48] On cortical neurons, 2 μM OptoNAM-3 induced 70% inhibition of NMDA-induced currents in the dark. The lower inhibitory effect of trans-OptoNAM-3 on neurons compared to HEK cells is most likely due to the mixture of NMDAR subtypes expressed in neurons.[48] […] This effect is furthermore partially reversible thanks to the use of 550 nm light.
Mice were housed in the IBENS rodent central facility duly accredited by the French Ministry of Agriculture. All experiments were performed in compliance with French and European regulations on care and protection of laboratory animals (EU Directive 2010/63, French Law 2013–118, February 6, 2013), and were approved by local ethics committees and by the French Ministry of Research and Innovation (authorization numbers #05137.02, APAFIS #28867-2020121814485893). Dissociated cultures of cortical neurons were prepared from mouse embryos at E18 as described previously.[84] After removing meninges, cortices were placed in ice-cold HBSS solution. Cell dissociation was performed individually for cortices of each embryo. Cortices were incubated in 2.5% trypsin at 37 °C for 7 min, rinsed three times with 37 °C phosphate buffer saline, and finally suspended in plating medium (Neurobasal Medium, supplemented with 0.5 mM L-glutamine, 1% B27 supplement, and penicillin/streptomycin). The neurons were further dissociated by trituration, and cells were plated on poly-D-lysine coated coverslips in 24-well culture dishes at a density of 3 × 10^5 cells per well for the excitotoxicity test and that of 1 × 10^5 cells per well for patch clamp experiments. Cultures were incubated at 37 °C in a humidified atmosphere of 5% CO2. Cells were fed by changing 1/2 medium to fresh Neurobasal medium every 4 days. For the excitotoxicity experiments, after 5 days in vitro, growth of non-neuronal cells was halted by a 24 h exposure to FDX ([…] 5-fluoro-2′-deoxyuridine). The cultures were used for experiments after 6 to 14 days in vitro (DIV6–8 for patch clamp experiments and DIV14 for excitotoxicity tests).
Whole-cell patch-clamp recordings on neurons were performed 6 to 8 days after the culturing step (DIV 6–8) using the same recording conditions as for HEK cells. Recordings were performed at a holding potential of −60 mV and at room temperature. Currents were elicited by NMDA (300 μM) and D-serine (50 μM) to specifically activate NMDARs.
OptoNAM-3 was perfused in the dark onto the patched neuron (Figure 5A–C). […] Stopping perfusion ensures that trans-OptoNAM coming from the perfusion tube […] with the wavelength PSS during the illumination procedure.
OptoNAM-3 was perfused in the dark onto the patched neuron (Figures 4G,H and 5F,H). […] Then, wavelengths from 435 to 580 nm were applied and the inhibition recovery was monitored.
For the trans to cis and cis to trans isomerization study in the binding site (Figure 5C,H respectively), we decided to normalize (scale) the inhibition values of OptoNAM-3 at different wavelengths by the inhibition induced by OptoNAM-3 at 365 nm and in the dark since these two conditions represent respectively the minimum and maximum of the inhibition. We followed this equation: [drawing 2] where m ∈ [r365,rdark] is the measurement (inhibition) to be scaled, r365 and rdark correspond to the minimum (365 nm state inhibition) and maximum (dark state inhibition) of the measurement, respectively, and t365 and tdark represent the minimum and maximum of the range (OptoNAM-3 365 nm PSS and dark PSS mean inhibition). To reduce the decreasing effect of normalization onto SEM, the SEMs represented in the figures were calculated with the data injected in the first part of the equation ( [drawing 3] ). […]

c1ccc(/N=N/c2ccc(CCNc3ccncc3)cc2)cc1 [OptoNAM-3, (E)-N-(4-(Phenyldiazenyl)phenethyl)pyridin-4-amine]
% of trans in binding site (365 nm): 10.32% | % of trans in binding site (435 nm): 10.43% | % of trans in binding site (460 nm): 11.07% | % of trans in binding site (490 nm): 23.70% | % of trans in binding site (525 nm): 23.06% | % of trans in binding site (550 nm): 39.11% | % of trans in binding site (580 nm): 27.15% | % of cis in binding site (365 nm): 89.957% | % of cis in binding site (435 nm): 75.836% | % of cis in binding site (460 nm): 68.140% | % of cis in binding site (490 nm): 38.614% | % of cis in binding site (525 nm): 12.701% | % of cis in binding site (550 nm): 1.233% | % of cis in binding site (580 nm): 0.801%
